Measurements from patent US20240197722A1, “ANTICANCER COMPOSITION INDUCING CELL SENESCENCE AND CELL DEATH” (OSTEONEUROGEN INC., priority 2021, published 2024).

Key:
Type in all cases: cell-based
MCF7 = assay: CCK-8 cell proliferation assay in MCF7 cells; conditions: Homo sapiens; MCF7, CCK-8, 72 hours
Protocol: (§1) H358 cells were seeded in 96-well plates at a concentration of 3×10^4 cells/well for 24 hours.
(§2) The experimental method was carried out in the same manner as described in Example 2 except for the cells used and the positive control reagent.

PC3 = assay: CCK-8 cell proliferation assay in PC3 cells; conditions: Homo sapiens, PC-3; PC3, CCK-8, 72 hours
Protocol: as §1, §2

PC3 cells = assay: Caspase-3/7 activity (apoptosis) in PC3 cells; conditions: Homo sapiens, PC-3; PC3, Caspase-3/7 activity
Protocol: Caspase-3/7 activity was measured by using a Caspase-3/7 assay kit (Promega, G8091). […] Thereafter, protein was measured with BCA (Thermo, 23227), and the protein was adjusted to 50 μg per 50 μL of cell lysis buffer. Afterwards, Caspase-3/7 activity was analyzed according to the manufacturer's protocol.

NHLF cells [1] = assay: Mitochondrial membrane potential (MTMP) analysis in NHLF; conditions: Homo sapiens, read-out: MTMP: IC 50
Protocol: (i) Mitochondrial membrane potential analysis was performed in the same manner as in Example 1.

NHLF cells [2] = assay: LDH cytotoxicity assay in NHLF; conditions: Homo sapiens, read-out: LDH: EC 50
Protocol: (iii) LDH cytotoxicity assay detected LDH release by using an LDH assay kit (Abcam, ab56393). […] Absorbance values were measured at 450 nm in a microplate reader.

**Q.** With `O=C(CCCCCCC(=O)Nc1ccccc1)NO` [SAHA, suberoylanilide hydroxamic acid, reference compound] as the compound, how does the IC50 (MCF7) read?
**A.** 11.2 µM

**Q.** And the IC50 (PC3)?
**A.** 3.84 µM

**Q.** What about the EC50 (PC3 cells) of the same compound?
**A.** 13.5 µM

**Q.** And the IC50 (NHLF cells [1])?
**A.** 22.4 µM

**Q.** And the EC50 (NHLF cells [2])?
**A.** 115 µM
